These are yes or no findings as the source states them, for the method shown. In cells and extracts the contact can be indirect. Some binding calls cover weakened binding; strength is not graded here. For some of these results: Where a sequence is shown, tags or fusion partners need not be part of it.
How the values were obtained:
Assay in all cases: co-IP; HEK293T cells co-transfected with SynDIG (or IFITM3) and HA-tagged μAP subunit; lysate on α-HA magnetic beads for 90 min at RT; myc-tagged protein detected by immunoblot; values normalised to eluted μ protein and to input
[1] = target: HA-tagged μ2 AP subunit (UniProt Q96CW1)
[2] = target: T1, HA-tagged μ3a AP subunit (UniProt Q9Y2T2)
T1 sequence: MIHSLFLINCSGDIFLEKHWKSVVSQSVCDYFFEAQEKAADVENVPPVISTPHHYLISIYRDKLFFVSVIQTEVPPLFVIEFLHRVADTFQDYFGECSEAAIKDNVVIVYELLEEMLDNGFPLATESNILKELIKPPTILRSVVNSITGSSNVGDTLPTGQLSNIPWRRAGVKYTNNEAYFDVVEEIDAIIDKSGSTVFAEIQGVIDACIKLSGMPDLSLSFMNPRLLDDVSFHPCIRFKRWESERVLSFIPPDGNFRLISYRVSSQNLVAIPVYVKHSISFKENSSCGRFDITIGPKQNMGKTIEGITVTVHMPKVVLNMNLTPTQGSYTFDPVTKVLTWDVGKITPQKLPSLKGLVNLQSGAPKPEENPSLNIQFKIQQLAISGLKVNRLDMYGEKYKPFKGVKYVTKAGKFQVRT

By UniProt entry, the sequences of proteins in these tests, tags left out. Where a name states a change or a piece, a line headed by the entry shows the natural chain unless it says otherwise. Chains listed by the source or under a name are the forms on record and can include a tag or linker.
UniProt Q96CW1: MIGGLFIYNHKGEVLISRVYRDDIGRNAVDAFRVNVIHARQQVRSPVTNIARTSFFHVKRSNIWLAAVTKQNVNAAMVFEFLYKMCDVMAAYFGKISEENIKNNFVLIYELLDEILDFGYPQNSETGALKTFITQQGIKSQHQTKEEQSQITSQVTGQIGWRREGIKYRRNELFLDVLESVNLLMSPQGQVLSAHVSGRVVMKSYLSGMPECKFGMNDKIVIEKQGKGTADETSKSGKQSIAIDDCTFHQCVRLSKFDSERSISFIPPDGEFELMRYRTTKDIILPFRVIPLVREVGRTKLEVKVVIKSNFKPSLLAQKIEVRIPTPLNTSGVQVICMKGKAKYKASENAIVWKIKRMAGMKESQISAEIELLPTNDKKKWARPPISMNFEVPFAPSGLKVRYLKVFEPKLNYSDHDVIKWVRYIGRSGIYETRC
UniProt Q01628: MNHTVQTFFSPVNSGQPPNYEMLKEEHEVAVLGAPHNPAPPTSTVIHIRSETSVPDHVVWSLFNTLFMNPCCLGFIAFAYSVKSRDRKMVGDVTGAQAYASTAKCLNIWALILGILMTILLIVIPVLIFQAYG
UniProt A2ANU3: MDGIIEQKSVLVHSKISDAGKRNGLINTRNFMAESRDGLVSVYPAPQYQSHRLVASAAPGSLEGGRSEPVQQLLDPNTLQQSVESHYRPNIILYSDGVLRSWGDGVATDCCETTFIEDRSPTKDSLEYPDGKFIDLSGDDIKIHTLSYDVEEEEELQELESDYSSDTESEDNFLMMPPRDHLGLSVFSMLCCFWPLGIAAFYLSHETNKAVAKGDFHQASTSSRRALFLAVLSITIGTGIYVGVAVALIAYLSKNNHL
myc-SynDIG1∆161–76 (A2ANU3, form named): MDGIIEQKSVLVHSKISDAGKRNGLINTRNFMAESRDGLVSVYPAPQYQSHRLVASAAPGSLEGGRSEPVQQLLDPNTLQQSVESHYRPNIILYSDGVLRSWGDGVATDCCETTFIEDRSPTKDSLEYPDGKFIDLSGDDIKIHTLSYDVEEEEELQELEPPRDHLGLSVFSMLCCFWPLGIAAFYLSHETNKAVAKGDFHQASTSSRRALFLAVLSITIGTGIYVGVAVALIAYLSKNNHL
myc-SynDIG1∆161–72 (A2ANU3, form named): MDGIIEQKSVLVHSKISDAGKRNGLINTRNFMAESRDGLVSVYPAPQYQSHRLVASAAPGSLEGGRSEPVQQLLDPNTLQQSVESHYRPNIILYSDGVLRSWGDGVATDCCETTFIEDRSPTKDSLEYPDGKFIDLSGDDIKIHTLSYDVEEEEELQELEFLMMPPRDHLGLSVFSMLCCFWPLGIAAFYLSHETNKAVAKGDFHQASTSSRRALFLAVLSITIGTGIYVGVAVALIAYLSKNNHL
UniProt Q6MG82: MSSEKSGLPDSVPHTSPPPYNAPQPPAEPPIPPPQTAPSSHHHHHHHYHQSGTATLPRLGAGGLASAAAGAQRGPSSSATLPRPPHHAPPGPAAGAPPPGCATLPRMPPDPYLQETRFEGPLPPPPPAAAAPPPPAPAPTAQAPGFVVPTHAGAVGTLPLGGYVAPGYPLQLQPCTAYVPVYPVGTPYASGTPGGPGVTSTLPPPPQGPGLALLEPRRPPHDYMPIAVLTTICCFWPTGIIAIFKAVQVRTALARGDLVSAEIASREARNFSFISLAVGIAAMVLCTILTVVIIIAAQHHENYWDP
SynDIG4 mutant 178-AVPA-181 (Q6MG82, form named): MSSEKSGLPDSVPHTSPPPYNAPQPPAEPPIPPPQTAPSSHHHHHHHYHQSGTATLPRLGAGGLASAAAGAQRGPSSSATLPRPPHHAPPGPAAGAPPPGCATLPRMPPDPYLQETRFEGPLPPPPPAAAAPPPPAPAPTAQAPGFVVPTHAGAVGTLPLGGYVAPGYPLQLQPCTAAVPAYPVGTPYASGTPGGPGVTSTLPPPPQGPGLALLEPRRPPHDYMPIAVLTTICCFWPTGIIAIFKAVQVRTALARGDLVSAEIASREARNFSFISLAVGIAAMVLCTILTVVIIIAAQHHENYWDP
SynDIG4 mutant 223-AMPA-226 (Q6MG82, form named): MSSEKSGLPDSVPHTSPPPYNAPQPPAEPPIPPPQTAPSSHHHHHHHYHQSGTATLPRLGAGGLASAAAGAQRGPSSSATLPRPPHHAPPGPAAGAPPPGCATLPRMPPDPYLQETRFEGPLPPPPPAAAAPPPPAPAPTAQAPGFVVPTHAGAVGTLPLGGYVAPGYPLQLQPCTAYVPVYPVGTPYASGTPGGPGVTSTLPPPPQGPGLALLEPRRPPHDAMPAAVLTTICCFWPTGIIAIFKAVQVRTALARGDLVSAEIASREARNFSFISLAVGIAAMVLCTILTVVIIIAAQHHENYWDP

[3] = target: T2, HA-tagged μ1a AP subunit (UniProt Q9BXS5)
T2 sequence: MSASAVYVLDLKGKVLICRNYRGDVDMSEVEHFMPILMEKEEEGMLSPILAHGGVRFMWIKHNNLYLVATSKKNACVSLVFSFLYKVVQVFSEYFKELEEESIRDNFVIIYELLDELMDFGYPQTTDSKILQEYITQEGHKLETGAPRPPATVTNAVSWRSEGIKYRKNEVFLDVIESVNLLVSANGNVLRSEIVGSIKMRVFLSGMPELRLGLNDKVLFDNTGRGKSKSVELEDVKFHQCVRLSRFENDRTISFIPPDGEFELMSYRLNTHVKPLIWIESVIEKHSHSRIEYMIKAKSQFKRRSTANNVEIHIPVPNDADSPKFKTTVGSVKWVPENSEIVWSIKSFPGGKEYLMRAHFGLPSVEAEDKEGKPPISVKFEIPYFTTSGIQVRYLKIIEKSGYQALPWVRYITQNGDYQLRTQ

[4] = target: T3, HA-tagged μ4 AP subunit (UniProt O00189)
T3 sequence: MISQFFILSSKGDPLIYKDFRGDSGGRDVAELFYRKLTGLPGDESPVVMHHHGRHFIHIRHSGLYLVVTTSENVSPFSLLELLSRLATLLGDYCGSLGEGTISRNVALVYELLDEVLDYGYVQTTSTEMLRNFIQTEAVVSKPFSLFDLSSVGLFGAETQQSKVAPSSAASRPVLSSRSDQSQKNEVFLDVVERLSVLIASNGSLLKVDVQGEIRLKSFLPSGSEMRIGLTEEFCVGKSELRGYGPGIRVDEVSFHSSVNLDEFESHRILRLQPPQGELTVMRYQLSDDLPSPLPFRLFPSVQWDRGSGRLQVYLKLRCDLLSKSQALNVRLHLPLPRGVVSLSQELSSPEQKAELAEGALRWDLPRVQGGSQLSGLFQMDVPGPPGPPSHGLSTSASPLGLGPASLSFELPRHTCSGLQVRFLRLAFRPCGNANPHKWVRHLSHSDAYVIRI

Substance | binding [1] | binding [2] | binding [3] | binding [4]
myc-hIFITM3 (from UniProt Q01628 1-133) | binds |  | binds weakly | binds weakly
myc-SynDIG1∆161–76 (from UniProt A2ANU3 1-258) |  |  | binds | 
myc-SynDIG1∆161–72 (from UniProt A2ANU3 1-258) | binds |  |  | 
SynDIG4 mutant 223-AMPA-226 (from UniProt Q6MG82 1-306) | binds |  |  | 

Results, then the substance that gave them:

binding [1] | binding [2] | binding [3] | binding [4] | Substance
binds | binds | binds | binds | myc-tagged SynDIG4 (wild type) (from UniProt Q6MG82 1-306)
binds |  | binds |  | myc-tagged SynDIG1 (wild type) (from UniProt A2ANU3 1-258)
binds |  |  |  | SynDIG4 mutant 178-AVPA-181 (from UniProt Q6MG82 1-306)
